In the supplement of paper PMC7024190 one finds log data, which are given here for 10 compounds.

Some of the results follow. Single values are uncertain here, since repeats match poorly.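 Human embryonic kidney cells were transiently transfected with a plasmid bearing a Renilla luciferase gene under the HSV-TK promoter. This first-round screen tests roughly ten thousand compounds for ones that increase reporter output.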

The subject of the assay is HEK 293FT. As to the kind of experiment: log relative Renilla luciferase luminescence (reporter expression vs reference, reference not stated) (log (base not stated)); higher = higher recombinant reporter expression. The conditions noted are these: 10 µM; time after transfection 48 h. How it is done:
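HEK 293FT cells transiently transfected with pRL-TK (Renilla luciferase) were treated with compounds at 10 uM and luminescence was read about 42 h later. Values are log relative Renilla luminescence (log base and reference not stated). Single-pass screen; 2080 natural products library.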
Consider `C=C1CC[C@@H]2[C@H]([C@H]3[C@H]1CC[C@]3(C)[C@@H](CC(C)C)c1c(O)c(C=O)c(O)c(C=O)c1O)C2(C)C` [Macrocarpal C], for which the log was -0.0315. The result for `C=C(CCC(O)C(C)(C)O)C1CCC2(C)C1CCC1C3(C)CCC(O)C(C)(C)C3CCC12C` (stereo not given) [Dammar-20(21)-en-3,24,25-triol] reads -0.00908; that for `C=C1C(=O)O[C@H]2C[C@H](C)C(C(CC(C)=O)OC(C)=O)=CC[C@H]12` (stereo not given in full) [Xanthinin], 0.322.

With `COc1c(OC)c2occc2c2oc(=O)ccc12` [Pimpinellin], the log amounted to 0.085. Regarding `COc1cc(-c2oc3cc(OC)c(OC)c(O)c3c(=O)c2OC)ccc1O` [Chrysosplenetin], the log was 0.107. `CC1(C)O[C@H]2CC(=O)OC[C@@]23C1=C(O)C(=O)[C@]1(C)[C@@H]3CC[C@@]2(C)[C@H](c3ccoc3)OC(=O)[C@H]3O[C@]321` [Evodol]: the log was 0.0179. For `COC(=O)/C=C(\C)CC[C@@]1(C)[C@H](C)CC[C@@]2(C)C(C(=O)O)=CCC[C@H]12` [Monomethyl kolavate], the log is -0.006.

In the case of `COc1cc2ccc(=O)oc2cc1O` [Scopoletin], the log was -0.0863. As for `CC1(C)CC[C@]2(C(=O)O)CC[C@]3(C)C(=CC[C@@H]4[C@@]5(C)C[C@@H](O)[C@H](O)C(C)(C)[C@@H]5CC[C@]43C)[C@@H]2C1` [Crategolic acid], the log was found to be 0.127. The result for `C=C1C(=O)O[C@H]2[C@H]1[C@H](OC(C)=O)C[C@@]1(C)O[C@@H]1CC[C@@]1(C)O[C@H]21` [Epitulipinolide diepoxide] reads -0.422.
